Some of the results follow.

By UniProt entry, the sequences of proteins in these tests, tags left out. Where a name states a change or a piece, a line headed by the entry shows the natural chain unless it says otherwise.
UniProt Q9NVN3: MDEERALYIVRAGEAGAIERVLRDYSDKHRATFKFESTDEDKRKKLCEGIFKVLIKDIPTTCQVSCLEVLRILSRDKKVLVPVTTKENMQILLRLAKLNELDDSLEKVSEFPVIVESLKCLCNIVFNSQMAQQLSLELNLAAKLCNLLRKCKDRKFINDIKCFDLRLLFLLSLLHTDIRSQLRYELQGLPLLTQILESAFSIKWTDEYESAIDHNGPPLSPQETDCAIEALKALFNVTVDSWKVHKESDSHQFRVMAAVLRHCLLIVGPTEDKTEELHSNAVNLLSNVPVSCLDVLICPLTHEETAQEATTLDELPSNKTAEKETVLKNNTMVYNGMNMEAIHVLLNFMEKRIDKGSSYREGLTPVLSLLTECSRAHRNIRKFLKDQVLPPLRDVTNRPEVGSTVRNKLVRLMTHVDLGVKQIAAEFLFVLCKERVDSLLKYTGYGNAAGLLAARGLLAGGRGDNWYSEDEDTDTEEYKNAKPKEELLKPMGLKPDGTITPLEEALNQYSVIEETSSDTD
UniProt Q8TDP1: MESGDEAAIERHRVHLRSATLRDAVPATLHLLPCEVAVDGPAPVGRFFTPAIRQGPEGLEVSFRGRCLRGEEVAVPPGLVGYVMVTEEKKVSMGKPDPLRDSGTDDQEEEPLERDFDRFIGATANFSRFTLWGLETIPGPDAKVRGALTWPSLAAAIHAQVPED
UniProt Q9P0P0: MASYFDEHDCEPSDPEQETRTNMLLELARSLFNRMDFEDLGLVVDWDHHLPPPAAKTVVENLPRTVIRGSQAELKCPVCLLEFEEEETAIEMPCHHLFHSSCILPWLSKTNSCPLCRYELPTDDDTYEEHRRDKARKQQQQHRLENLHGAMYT
UniProt Q8IXI1, whole entry, looked up: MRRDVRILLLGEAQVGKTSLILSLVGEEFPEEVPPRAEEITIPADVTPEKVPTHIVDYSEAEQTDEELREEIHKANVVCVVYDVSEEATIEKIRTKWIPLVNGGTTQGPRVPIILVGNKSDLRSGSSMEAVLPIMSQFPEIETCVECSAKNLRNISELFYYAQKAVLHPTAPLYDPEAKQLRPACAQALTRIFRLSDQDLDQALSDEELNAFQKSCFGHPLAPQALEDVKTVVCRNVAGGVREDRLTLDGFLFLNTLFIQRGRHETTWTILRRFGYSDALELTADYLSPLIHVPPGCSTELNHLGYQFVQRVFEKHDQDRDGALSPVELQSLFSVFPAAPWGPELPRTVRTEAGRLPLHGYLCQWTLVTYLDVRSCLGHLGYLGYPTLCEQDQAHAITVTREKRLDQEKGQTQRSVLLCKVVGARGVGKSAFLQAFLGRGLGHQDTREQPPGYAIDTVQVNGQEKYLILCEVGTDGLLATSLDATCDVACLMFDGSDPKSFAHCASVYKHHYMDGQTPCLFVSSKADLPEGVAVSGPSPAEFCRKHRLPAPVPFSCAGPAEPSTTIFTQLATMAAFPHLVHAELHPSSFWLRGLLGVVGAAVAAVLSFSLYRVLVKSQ
UniProt Q5TBB1: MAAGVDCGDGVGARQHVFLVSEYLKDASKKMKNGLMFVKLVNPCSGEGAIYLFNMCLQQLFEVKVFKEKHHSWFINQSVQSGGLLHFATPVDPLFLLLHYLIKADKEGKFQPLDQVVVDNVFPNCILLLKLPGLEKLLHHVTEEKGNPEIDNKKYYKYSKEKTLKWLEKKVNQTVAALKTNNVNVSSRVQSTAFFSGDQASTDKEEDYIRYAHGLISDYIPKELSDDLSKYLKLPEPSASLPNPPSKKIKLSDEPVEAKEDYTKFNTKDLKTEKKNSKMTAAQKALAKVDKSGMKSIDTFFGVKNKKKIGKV
UniProt P35244: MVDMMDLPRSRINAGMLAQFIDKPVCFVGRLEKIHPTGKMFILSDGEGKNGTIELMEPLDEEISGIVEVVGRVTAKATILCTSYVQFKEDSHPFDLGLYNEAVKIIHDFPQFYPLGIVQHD
UniProt Q96DM3: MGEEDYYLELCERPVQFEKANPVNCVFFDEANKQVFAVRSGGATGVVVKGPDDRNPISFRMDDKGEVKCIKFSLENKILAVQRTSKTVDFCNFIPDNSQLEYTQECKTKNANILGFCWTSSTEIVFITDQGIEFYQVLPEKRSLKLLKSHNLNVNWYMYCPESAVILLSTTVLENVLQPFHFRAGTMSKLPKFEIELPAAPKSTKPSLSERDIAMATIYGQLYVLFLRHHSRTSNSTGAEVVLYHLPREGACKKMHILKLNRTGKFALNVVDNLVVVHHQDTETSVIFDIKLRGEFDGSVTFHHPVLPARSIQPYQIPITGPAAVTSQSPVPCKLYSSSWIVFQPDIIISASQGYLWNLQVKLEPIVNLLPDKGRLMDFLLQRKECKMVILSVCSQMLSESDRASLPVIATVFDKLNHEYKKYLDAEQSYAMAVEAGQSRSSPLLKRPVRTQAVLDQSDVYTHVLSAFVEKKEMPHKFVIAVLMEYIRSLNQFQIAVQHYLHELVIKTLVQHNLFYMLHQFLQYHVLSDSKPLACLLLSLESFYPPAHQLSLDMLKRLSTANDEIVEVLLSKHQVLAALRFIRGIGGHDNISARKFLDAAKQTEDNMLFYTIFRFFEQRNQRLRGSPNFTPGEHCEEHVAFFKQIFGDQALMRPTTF
UniProt O75695: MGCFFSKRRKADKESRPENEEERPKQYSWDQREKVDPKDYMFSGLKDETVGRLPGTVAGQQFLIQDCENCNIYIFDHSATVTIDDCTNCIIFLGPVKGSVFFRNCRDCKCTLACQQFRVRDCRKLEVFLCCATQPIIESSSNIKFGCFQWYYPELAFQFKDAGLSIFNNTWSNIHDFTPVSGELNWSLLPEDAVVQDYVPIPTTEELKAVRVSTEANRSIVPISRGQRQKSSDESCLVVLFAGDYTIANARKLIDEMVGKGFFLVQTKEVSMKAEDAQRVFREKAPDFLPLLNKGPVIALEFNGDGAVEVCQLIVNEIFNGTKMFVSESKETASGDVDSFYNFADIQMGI
UniProt Q96A37: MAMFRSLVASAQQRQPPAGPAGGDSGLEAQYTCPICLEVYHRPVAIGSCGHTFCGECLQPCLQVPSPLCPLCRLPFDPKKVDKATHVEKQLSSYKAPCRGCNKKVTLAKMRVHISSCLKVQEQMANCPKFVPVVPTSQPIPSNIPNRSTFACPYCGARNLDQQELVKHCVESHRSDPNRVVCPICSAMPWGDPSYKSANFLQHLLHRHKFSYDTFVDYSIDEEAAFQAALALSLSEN
UniProt Q13464: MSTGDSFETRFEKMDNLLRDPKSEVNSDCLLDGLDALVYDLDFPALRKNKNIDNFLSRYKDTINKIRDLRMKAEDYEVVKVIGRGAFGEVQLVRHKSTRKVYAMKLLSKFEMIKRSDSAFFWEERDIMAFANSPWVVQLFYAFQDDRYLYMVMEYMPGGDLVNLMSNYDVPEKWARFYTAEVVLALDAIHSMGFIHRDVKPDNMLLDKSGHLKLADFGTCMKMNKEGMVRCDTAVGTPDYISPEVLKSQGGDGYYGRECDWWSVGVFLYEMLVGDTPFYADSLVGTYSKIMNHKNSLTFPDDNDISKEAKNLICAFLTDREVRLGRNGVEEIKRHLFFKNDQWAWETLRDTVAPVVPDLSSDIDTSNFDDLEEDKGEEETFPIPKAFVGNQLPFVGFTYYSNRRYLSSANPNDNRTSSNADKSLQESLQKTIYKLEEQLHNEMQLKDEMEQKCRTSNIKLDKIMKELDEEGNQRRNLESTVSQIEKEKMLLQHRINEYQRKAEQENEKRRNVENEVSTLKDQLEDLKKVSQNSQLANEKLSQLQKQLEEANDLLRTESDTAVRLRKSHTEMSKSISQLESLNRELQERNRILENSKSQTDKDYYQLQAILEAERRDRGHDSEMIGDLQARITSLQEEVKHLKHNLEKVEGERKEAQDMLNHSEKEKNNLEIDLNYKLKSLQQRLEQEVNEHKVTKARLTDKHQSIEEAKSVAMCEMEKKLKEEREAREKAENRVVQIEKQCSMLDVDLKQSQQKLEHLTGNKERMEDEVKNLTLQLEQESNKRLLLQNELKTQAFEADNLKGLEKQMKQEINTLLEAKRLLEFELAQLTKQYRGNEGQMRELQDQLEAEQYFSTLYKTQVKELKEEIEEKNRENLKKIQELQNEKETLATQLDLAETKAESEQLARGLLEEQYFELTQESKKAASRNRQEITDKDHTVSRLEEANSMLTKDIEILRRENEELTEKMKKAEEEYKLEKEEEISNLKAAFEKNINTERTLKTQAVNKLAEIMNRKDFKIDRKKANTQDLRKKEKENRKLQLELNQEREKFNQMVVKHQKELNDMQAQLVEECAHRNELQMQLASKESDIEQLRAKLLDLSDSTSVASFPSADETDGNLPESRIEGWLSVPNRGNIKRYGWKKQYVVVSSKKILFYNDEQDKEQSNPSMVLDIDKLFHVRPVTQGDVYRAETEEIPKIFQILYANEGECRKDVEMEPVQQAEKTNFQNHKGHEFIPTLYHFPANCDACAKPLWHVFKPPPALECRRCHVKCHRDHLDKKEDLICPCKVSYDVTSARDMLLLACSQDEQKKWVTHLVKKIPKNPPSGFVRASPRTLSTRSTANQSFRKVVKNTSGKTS
UniProt Q9BV68: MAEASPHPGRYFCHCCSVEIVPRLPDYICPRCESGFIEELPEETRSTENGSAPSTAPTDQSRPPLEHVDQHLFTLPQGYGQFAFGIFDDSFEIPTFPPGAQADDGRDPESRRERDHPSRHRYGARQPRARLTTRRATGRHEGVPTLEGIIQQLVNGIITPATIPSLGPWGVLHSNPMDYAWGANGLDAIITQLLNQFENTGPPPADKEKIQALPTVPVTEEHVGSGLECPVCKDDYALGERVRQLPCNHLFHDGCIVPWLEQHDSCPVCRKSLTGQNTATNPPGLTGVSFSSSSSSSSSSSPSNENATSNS
UniProt Q9UBS8: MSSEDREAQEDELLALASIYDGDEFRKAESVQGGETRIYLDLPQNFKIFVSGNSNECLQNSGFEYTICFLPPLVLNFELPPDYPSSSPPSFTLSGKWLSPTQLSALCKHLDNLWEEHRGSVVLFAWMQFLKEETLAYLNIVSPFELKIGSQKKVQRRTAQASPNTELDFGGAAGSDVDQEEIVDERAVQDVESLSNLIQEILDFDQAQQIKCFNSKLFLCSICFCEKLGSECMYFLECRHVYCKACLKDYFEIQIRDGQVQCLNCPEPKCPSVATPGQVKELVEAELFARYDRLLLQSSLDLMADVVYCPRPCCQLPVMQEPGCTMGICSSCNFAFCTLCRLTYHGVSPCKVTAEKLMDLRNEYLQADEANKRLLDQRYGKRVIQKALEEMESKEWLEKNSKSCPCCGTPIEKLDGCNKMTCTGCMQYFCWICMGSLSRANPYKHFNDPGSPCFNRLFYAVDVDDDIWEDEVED
UniProt Q8IYW5, whole entry, looked up: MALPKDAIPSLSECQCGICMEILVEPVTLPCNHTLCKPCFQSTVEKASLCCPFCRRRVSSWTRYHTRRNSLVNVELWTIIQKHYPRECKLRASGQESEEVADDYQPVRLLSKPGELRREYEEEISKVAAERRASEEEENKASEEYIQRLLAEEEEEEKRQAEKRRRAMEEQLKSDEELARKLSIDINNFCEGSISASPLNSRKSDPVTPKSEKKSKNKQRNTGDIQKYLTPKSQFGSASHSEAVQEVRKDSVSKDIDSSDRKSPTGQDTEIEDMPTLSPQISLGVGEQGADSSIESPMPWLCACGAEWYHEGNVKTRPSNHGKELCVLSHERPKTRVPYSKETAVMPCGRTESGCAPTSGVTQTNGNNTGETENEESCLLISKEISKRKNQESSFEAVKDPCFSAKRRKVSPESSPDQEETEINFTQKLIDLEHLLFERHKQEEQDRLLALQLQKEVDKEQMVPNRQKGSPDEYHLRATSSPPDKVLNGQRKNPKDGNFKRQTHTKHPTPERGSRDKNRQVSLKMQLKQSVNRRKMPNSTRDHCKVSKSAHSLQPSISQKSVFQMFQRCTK
UniProt Q96TC7: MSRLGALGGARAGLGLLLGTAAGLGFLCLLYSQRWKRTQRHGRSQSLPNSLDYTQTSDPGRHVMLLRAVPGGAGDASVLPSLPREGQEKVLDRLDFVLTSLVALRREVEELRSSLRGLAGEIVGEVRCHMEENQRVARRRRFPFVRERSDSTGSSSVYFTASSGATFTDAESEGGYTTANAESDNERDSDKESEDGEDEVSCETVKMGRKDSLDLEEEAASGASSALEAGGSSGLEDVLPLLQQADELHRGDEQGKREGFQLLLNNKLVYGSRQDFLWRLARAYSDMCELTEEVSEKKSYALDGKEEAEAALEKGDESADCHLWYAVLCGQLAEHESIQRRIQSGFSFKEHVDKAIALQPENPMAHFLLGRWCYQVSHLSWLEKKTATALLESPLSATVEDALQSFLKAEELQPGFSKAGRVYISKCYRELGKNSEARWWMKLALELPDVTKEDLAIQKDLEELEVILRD

Compound in the first test: COc1cc2nc(-c3cc(F)ccc3O)nc(N[C@@H]3CNC[C@H]3C(C)(C)O)c2cc1OC
Kind of test: log2 fold change, soluble protein after heating vs DMSO (PISA); higher = thermal stabilisation; K562 lysate, 10 uM; active = over 0.2 and 3.5 SD of the protein, either way, in both replicates (recomputed). Put shortly: (§1)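 K562 pellets were dounce-homogenised in PBS pH 7.4 containing 1 mM MgCl2, and the crude extract, at 1 mg/mL protein, was exposed to 10 μM compound for 30 min. Aliquots were heated for 3 min across 48°C-58°C, pooled, brought to 0.5% NP-40 at 4°C and spun at 21,000xg for 90 min, with the supernatant taken as soluble protein. TMTpro 16plex LC-MS/MS with equalised channel sums quantified that protein. Values are log-two fold changes in thermal stability relative to solvent controls, taken from duplicates.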
Turning to RIC8B isoform 1 (UniProt Q9NVN3), the log2 fold change is inactive: -0.017.

For the target RPL32 (UniProt P62910), the log2 fold change is inactive: -0.023.

As to RIOX2 (UniProt Q8IUF8), the log2 fold change is inactive: 0.007.

Consider RNF123 (UniProt Q5XPI4), for which the log2 fold change was inactive: 0.017.

As to RPL30 (UniProt P62888), the log2 fold change was inactive: -0.002.

Take RNASEH2C (UniProt Q8TDP1): the log2 fold change was inactive: -0.018.

With RNF181 (UniProt Q9P0P0), the log2 fold change was inactive: -0.004.

For RMDN1 (UniProt Q96DB5), the log2 fold change was inactive: -0.051.

As to RHOT2 (UniProt Q8IXI1), the log2 fold change is inactive: 0.032.

With RNASEH2B (UniProt Q5TBB1), the log2 fold change was inactive: -0.038.

Turning to RPA3 (UniProt P35244), the log2 fold change was inactive: -0.024.

Consider RMC1 (UniProt Q96DM3), for which the log2 fold change was inactive: -0.001.

Take RNF213, A0A0A0MTC1: the log2 fold change is inactive: 0.012.

Compound in another test: COc1cc2ncnc(Nc3ccc(F)c(Cl)c3)c2cc1OCCCN1CCOCC1 [gefitinib]
The test is described as above. The method in brief: as §1
In the case of RPL36 (UniProt Q9Y3U8), the log2 fold change is inactive: -0.013.

Regarding RPL29 (UniProt P47914), the log2 fold change is inactive: -0.084.

In the case of RIPK1 (UniProt Q13546), the log2 fold change is inactive: 0.042.

As to RP2 (UniProt O75695), the log2 fold change was inactive: -0.005.

Regarding RNF166 (UniProt Q96A37), the log2 fold change is inactive: -0.141.

Take RPL10A (UniProt P62906): the log2 fold change was inactive: -0.014.

With RIOK3 (UniProt O14730), the log2 fold change is inactive: 0.055.

With RNF146 (UniProt Q9NTX7), the log2 fold change is inactive: -0.198.

As for ROR2 (UniProt Q01974), the log2 fold change was inactive: 0.037.

On to RPL27 (UniProt P61353), for which the log2 fold change is inactive: -0.023.

On to RPAP3 (UniProt Q9H6T3), for which the log2 fold change was inactive: -0.011.

As for RPL35 (UniProt P42766), the log2 fold change was inactive: -0.077.

For ROCK1 (UniProt Q13464), the log2 fold change is inactive: -0.004.

Take RNF126 (UniProt Q9BV68): the log2 fold change is inactive: 0.016.

In the case of RPL18 (UniProt Q07020), the log2 fold change was inactive: -0.025.

For RPL34 (UniProt P49207), the log2 fold change was inactive: -0.04.

Take RPL13A (UniProt P40429): the log2 fold change is inactive: -0.006.

Turning to RNF14 (UniProt Q9UBS8), the log2 fold change was inactive: 0.017.

For RNF168 (UniProt Q8IYW5), the log2 fold change is inactive: 0.079.

Take RPL3 (UniProt P39023): the log2 fold change was inactive: -0.034.

Regarding RPF2 (UniProt Q9H7B2), the log2 fold change is inactive: -0.005.

With RMDN3 (UniProt Q96TC7), the log2 fold change was inactive: 0.002.

Take RPL14 (UniProt P50914): the log2 fold change was inactive: -0.017.

On to RIC8B isoform 1 (UniProt Q9NVN3), for which the log2 fold change was inactive: 0.032.

Take RPL32 (UniProt P62910): the log2 fold change was inactive: -0.015.

Take RIOX2 (UniProt Q8IUF8): the log2 fold change was inactive: -0.011.

For the target RNF123 (UniProt Q5XPI4), the log2 fold change was inactive: 0.011.

For RPL30 (UniProt P62888), the log2 fold change is inactive: -0.008.

As to RNASEH2C (UniProt Q8TDP1), the log2 fold change was inactive: 0.063.

In the case of RNF181 (UniProt Q9P0P0), the log2 fold change was inactive: -0.083.

As to RMDN1 (UniProt Q96DB5), the log2 fold change was inactive: -0.059.

For RHOT2 (UniProt Q8IXI1), the log2 fold change was inactive: 0.043.

RNASEH2B (UniProt Q5TBB1): the log2 fold change is inactive: -0.031.

As to RPA3 (UniProt P35244), the log2 fold change was inactive: -0.08.

Take RMC1 (UniProt Q96DM3): the log2 fold change was inactive: 0.005.

RNF213, A0A0A0MTC1: the log2 fold change is inactive: -0.012.

The record behind these values is the supplement of paper PMC10849652.
